Results deposited as PubChem BioAssay AID1259314 (Drosophila RNAi Screening Center, 2017).

- Aim: 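Genes whose knock-down alters cell survival under toxic manganese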 (primary screen)
- Cell system: Drosophila S2R+ cells
- Reagent: long dsRNA against Drosophila genes
- Timing: 5 days (4 days knock-down, then 1 day metal exposure)
- Challenge: manganese chloride added to 15 mM for 24 hours
- Read-out: 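Cellular ATP measured by luciferase light, scaled to the plate mean, averaged across replicates and z-scored over plates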
- Scale: mean ATP z-score: higher = more ATP than the plate average, more viable cells under manganese
- Call rule: 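Called active when the mean ATP z-score is above 1.5 or below -1.5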
- Calls: active = strong ATP change, up or down; inactive = no strong ATP change
Here is a random part of about 3,100 reagents tested. Over the whole deposit, 289 (9.3%) were called active. 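Active includes both higher and lower ATP than plate average; check the z-score sign for direction.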 Not given: the amount of reagent.

no.	target gene	amplicon	mean ATP z-score	activity call
1	ZnT33D	DRSC02591	0.626	inactive
2	ZnT33D	DRSC39537	-0.845	inactive
3	CG11155	DRSC17184	-0.686	inactive
4	CG11155	DRSC17205	-0.106	inactive
5	CG11155	DRSC29324	0.904	inactive
6	Lap1	DRSC07454	0.473	inactive
7	Lap1	DRSC39730	-0.0477	inactive
8	Nup358	DRSC29772	-1.94	active
9	Tsp42Ea	DRSC04982	2.94	active
10	Tsp42Ea	DRSC06792	2.9	active
11	Or98b	DRSC21751	-0.363	inactive
12	CG12773	DRSC18580	0.502	inactive
13	CG12773	DRSC24900	0.0237	inactive
14	CG14731	DRSC14952	-0.128	inactive
15	CG14731	DRSC39683	1.45	inactive
16	Prestin	DRSC10507	-2.56	active
17	Flo2	DRSC19062	2.52	active
18	Flo2	DRSC20244	0.14	inactive
19	fng	DRSC11887	-0.587	inactive
20	fng	DRSC21935	0.449	inactive
21	PK2-R1	DRSC16447	-0.302	inactive
22	PK2-R1	DRSC24363	-1.1	inactive
23	ppk10	DRSC01123	0.413	inactive
24	Dg	DRSC06718	-0.306	inactive
25	CG15923	DRSC15129	-0.812	inactive
26	CG32301	DRSC08613	-0.869	inactive
27	CG32301	DRSC39589	-1.14	inactive
28	Nup58	DRSC16235	1.64	active
29	Nup58	DRSC27863	0.16	inactive
30	GluRIA	DRSC11176	-0.98	inactive
31	CG34433	DRSC15077	0.122	inactive
32	CG31106	DRSC14655	-0.749	inactive
33	CG11162	DRSC22538	-0.158	inactive
34	CG11162	DRSC39680	0.156	inactive
35	FMRFaR	DRSC08555	-0.252	inactive
36	Rab3-GEF	DRSC19954	0.235	inactive
37	Rab3-GEF	DRSC19955	-0.339	inactive
38	Rab3-GEF	DRSC27720	0.267	inactive
39	bves	DRSC20520	0.524	inactive
40	bves	DRSC20555	0.203	inactive
41	CG32447	DRSC11732	-0.881	inactive
42	CG32447	DRSC11805	-0.554	inactive
43	PGRP-LC	DRSC08980	0.741	inactive
44	PGRP-LC	DRSC10416	-1.05	inactive
45	PGRP-LC	DRSC10417	-1.18	inactive
46	PGRP-LC	DRSC28556	-0.992	inactive

Reprinted from the entries so far for reference:
no.	target gene	amplicon	mean ATP z-score	activity call
40	bves	DRSC20555	0.203	inactive
41	CG32447	DRSC11732	-0.881	inactive
42	CG32447	DRSC11805	-0.554	inactive
43	PGRP-LC	DRSC08980	0.741	inactive
44	PGRP-LC	DRSC10416	-1.05	inactive
45	PGRP-LC	DRSC10417	-1.18	inactive
46	PGRP-LC	DRSC28556	-0.992	inactive
